In publication PMC8555990 one finds binding data, which are given here for two substances.

Chains of the proteins cited; added tags and fusions are not shown.
UniProt Q02248: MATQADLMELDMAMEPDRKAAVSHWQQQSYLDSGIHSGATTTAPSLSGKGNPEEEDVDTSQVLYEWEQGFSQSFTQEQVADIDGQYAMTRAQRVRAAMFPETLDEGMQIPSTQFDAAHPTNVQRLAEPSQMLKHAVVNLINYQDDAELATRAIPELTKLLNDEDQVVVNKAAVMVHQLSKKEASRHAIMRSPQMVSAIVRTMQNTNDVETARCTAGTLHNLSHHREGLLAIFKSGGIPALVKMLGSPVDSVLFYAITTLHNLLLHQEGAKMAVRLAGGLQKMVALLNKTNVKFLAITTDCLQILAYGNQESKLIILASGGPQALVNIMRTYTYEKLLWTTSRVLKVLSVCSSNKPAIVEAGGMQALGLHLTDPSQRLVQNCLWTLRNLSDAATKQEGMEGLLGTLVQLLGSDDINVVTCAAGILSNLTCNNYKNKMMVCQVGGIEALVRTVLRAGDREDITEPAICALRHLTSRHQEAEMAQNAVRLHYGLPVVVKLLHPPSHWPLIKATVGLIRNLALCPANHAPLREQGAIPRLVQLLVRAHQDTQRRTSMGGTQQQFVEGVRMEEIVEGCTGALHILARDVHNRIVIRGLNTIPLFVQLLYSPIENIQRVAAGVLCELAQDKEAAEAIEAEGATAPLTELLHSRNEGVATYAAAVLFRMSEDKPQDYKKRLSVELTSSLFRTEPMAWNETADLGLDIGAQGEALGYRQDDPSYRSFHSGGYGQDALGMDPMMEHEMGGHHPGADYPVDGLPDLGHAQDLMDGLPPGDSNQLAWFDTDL
UniProt Q04207: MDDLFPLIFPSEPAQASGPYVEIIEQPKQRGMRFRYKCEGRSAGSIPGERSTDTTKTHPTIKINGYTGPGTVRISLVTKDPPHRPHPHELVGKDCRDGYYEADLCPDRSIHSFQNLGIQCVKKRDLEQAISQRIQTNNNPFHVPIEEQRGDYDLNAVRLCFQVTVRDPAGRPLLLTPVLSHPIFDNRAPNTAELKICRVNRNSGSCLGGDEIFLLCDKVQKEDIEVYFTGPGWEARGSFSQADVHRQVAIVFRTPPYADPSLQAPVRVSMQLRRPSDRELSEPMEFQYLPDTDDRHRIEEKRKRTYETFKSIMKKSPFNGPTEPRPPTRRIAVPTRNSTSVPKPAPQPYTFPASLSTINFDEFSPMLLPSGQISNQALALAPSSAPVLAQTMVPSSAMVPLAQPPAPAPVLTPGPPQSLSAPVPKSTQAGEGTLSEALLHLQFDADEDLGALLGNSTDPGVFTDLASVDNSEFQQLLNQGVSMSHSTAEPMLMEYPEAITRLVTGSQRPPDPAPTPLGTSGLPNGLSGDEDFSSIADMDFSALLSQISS

The target in assay [1] is β-catenin (mouse (endogenous in SMCC and mouse liver)) (UniProt Q02248). The experiment in a line: co-IP; 1 mg SMCC whole-cell lysate (RIPA), precleared, β-catenin antibody or control IgG overnight at 4°C, Protein A/G PLUS-Agarose, washed with RIPA; blots for CFTR and p65.
Assay [2] concerns the target p65 subunit of NF-κB (mouse (endogenous in SMCC and mouse liver)) (UniProt Q04207). Description: co-IP; 1 mg SMCC whole-cell lysate (RIPA), precleared, p65 antibody overnight at 4°C, Protein A/G PLUS-Agarose, washed with RIPA; blot for β-catenin.
For assay [3] the target is unchanged. Description: co-IP; normal mouse whole liver lysate (RIPA), p65 pulled down; blot for β-catenin.

Results are given in words; binding and its absence hold for the method and conditions named. Binding seen in cells or lysates may run through a third protein. Some binding calls cover weakened binding; strength is not graded here.

Turning to “p65 subunit of NF-κB (from UniProt Q04207 1-549)”, the binding entry in assay [1] is “binds”.
For β-catenin (from UniProt Q02248 1-781), the binding entry in assay [2] and in assay [3] was “binds” each time.
